In paper PMC11378909, “Thr^4 phosphorylation on RNA Pol II occurs at early transcription regulating 3′-end processing” (Science Advances, 2024) one finds binding data, which are given here for one molecule.

The target in the test is RPRD1B-CID (residues 2 to 133) (human) (UniProt Q9NQG5). Put plainly: SEC; gel filtration profile of purified RPRD1B-CID (fig. S4A); both purified.

These are yes or no findings as the source states them, for the method shown.

B1: RPRD1B-CID (residues 2 to 133) (domain or fragment, UniProt Q9NQG5 2-133)
chain: SSFSESALEKKLSELSNSQQSVQTLSLWLIHHRKHAGPIVSVWHRELRKAKSNRKLTFLYLANDVIQNSKRKGPEFTREFESVLVDAFSHVAREADEGCKKPLERLLNIWQERSVYGGEFIQQLKLSMEDSK
As for B1, the binding entry was “no binding”.
